Assay results: article PMC10163288
Some of the results follow.

B1: il10ra_site1_sap_16_mot_HHH_b1_06816_000000239_0001_1_19_H_._HHH_b1_03929_0001_0000100004_0000001_1_0001 (protein)
chain: SSSSDESYEHAKRVIRELIRLLEEGDPEEAERLAEEARQFLEEAGNQLAAMTIRYSFERTSSSSS
B2: il10ra_site1_normal_mot_HHH_b2_07579_000000275_0001_1_19_H_._HHH_b2_05024_0001_0000100002_0000003_0 (protein)
chain: SSSSTEEHRELYELLREALELVARGDPEEAREVLEEAIELAQELGNYVFLFAAEHLYRDHSSSSS
B3: il10ra_site1_normal_mot_65b8060e20531850bca9f2e11f97d954_0001_af2_000000137_0001_17_31_H_._HHH_b1_06583_0001_0000200011_0000002_0 (protein)
chain: SSSSSEEERRALELIVRISRLLNRGDKEEAEELLEELEELAEKLNDPRLRQSLQFLEALLNSSSS
B4: il10ra_site1_normal_mot_HHH_b2_02736_000000092_0001_22_38_H_._HHH_b1_01700_0001_0000400037_0000001_0 (protein)
chain: SSSSDQEVYELLRELIEALSEGDEERFEELLEEVRRLAEELNNFALLFAIRLLEEQFRQLHSSSS
B5: il10ra_site1_normal_mot_HHH_b1_02708_af2_000000019_0001_23_39_H_._HHH_b1_07222_0002_0000600032_0000002_0 (protein)
chain: SSSDREEVVELLYRINRAAQEGDEELLEELLELLEELLKEIKDPEVRKYAEIALRFLENHLSSSS
B6: il10ra_site1_sap_18_mot_HHH_b1_06789_af2_000000041_0001_1_20_H_._HHH_b2_05092_af2_0001_0000200004_0000002_0_0001_af2pred_0001 (protein)
chain: SSSSDELERRAEELLEEAEERNDELAALIARAVLILVRLAEELGDPERAKLSLKDLEATLSSSSS
B7: il10ra_site1_sap_15_mot_HHH_b2_02347_000000198_0001_23_40_H_._HHH_b2_06432_0001_0000500028_0000002_0_0001 (protein)
chain: SSSSDEEVREEVEELLEEAEKIEDEHERAQLMFEALRLASENRDEELLEEIIRVIAELMDSSSSS
B8: il10ra_site1_sap_14_mot_HHH_eva_0266_af2_000000000_0001_3_18_H_._HHH_b1_03321_0001_0000100001_0000001_0_0001 (protein)
chain: SSSSYEELKKLIERITRALREGNREEAQELIERVEELAEERNDWSARFVARVLQEALEANSSSSS
B9: il10ra_site1_normal_mot_HHH_b2_00033_000000036_0001_41_54_H_._HHH_b2_03374_0001_0000100007_0000001_0 (protein)
chain: SSSSDEEEEELQRILEELEEAVERGDQEAVARLAQEAIRIAIRLNDPEIFQKLWEVAKAFVSSSS
B10: il10ra_site1_normal_mot_fda5df8c19bda1ddfcc41857df859eb0_0001_1_000000120_0001_35_49_H_._2ff9a36852ec7b54996b5ca24e2ac07d_0001_0001_0000100003_0000001_0_1_af2pr … (protein)
chain: SQEELRLRAAIRLSPEAFVLAVLALARRAGVPPEEVEKLEERLRELLKRGNEEEAIELALEVLKR
B11: il10ra_site1_normal_mot_HHH_b1_07835_af2_000000063_0001_1_16_H_._HHH_b1_05937_0001_0000500035_0000001_1_af2pred_0001 (protein)
chain: SSSSSDEEEERIEELLEEMKHIKDEREFAQKVFEALKRIAEIKNEELFHLLIKIASEFLSSSSSS
B12: il10ra_site1_sap_20_mot_HHH_b1_05254_000000006_0001_1_19_H_._HHH_b1_07585_0001_0000200008_0000002_0_0001 (protein)
chain: SSSSSDEDEEYVRMSLRFAKWLAKYDPEAARRIVKAALDFARAHGDPLAEEIEELLEELESSSSS
B13: il10ra_site1_sap_26_mot_HHH_b1_04693_000000238_0001_19_36_H_._HHH_b2_01018_0001_0000100004_0000002_0_0001_af2pred_0001 (protein)
chain: SSSSSSDRVERIVRLLLLSAERTEDEEVLRAALRLARQVAEANGDEEAEKLVEEVQERLSSSSSS
B14: il10ra_site1_normal_mot_HHH_b2_02497_000000220_0001_1_20_H_._HHH_b1_03596_af2_0001_0000300014_0000001_0 (protein)
chain: SSSSDDEVYELIRRAIELISDGNPEEAEEVLKEAEELAREANNPNMEWVLEFLKRLLERYSSSSS
B15: il10ra_site1_sap_24_mot_ec1b5fbdfc68683bf2e332ee276bd15f_0001_af2_000000176_0001_16_30_H_._6f4e18b70ea6afe83e6ac5c3da76eb22_0001_0001_0000400029_0000001_0_0001 (protein)
chain: SSSSSEFLERDLRAIEHIIRAGDKEYARLALRFVKYLAEELNDEEVQEEIERLEELLEEISSSSS
B16: il10ra_site1_sap_25_mot_HHH_b2_03038_000000109_0001_1_20_H_._HHH_b2_05280_af2_0001_0000200012_0000001_0_0001 (protein)
chain: SELLKKAFELQRRQGTPPEQVVEALVFLLAMRHNIPPEEAKELLLEIAEELGDPELEELVEKILR
B17: il10ra_site1_normal_mot_HHH_b1_06128_000000102_0001_1_20_H_._HHH_b2_08377_af2_0001_0000600009_0000001_1 (protein)
chain: SSSSDLQELAARAVLRAARLFIRGNREEAERLLEEVEEELEKKNNEEALEVVRRALEILRSSSSS
B18: il10ra_site1_normal_mot_HHH_b2_02736_000000092_0001_22_38_H_._HHH_b1_03120_0001_0000400042_0000001_0 (protein)
chain: SSSSNEEDQELYERLRKLIELVTEGDEEEAEELLEELERLARELNNFIILFVVRLLKRQLSSSSS
B19: il10ra_site1_sap_23_mot_HHH_b2_00441_000000175_0001_1_18_H_._HHH_b2_06532_0001_0000100006_0000001_0_0001_af2pred_0001 (protein)
chain: SSPEEAQKLLEEAEELAEEQNDKHALAAVRFWKHLDEWAKERNDERLVELVARAARVLLRILQES
B20: il10ra_site1_normal_mot_HHH_b1_01821_000000158_0001_23_39_H_._HHH_b2_02890_0001_0000400020_0000001_0 (protein)
chain: SSSSSEAEERVEELLEEAKHIEDPKEVNRLLLEALRLAYEAKNEELLQEIWEVFQELIELLSSSS
B21: il10ra_site1_normal_mot_HHH_b1_05056_000000217_0001_1_20_H_._HHH_b1_04508_0001_0000500021_0000001_1 (protein)
chain: SSSSSSSDQEEVEELLEEAEHIEDPRERTEVLLEATHLALRLQDPELLQLVWEVVRRLSSSSSSS
B22: il10ra_site1_normal_mot_HHH_b1_01880_000000285_0001_23_39_H_._HHH_b2_03857_0001_0000200012_0000001_0_af2pred_0001 (protein)
chain: SSSSSLEESVEFFLHLIEWALERNDPEAAEAAIEAAKRALRLANDEEAQEILEKLEEELNSSSSS
B23: il10ra_site1_sap_27_mot_39a7b8d0c4c3fc04bafbda6ce6101d3a_0001_1_af2_000000014_0001_34_48_H_._HHH_b2_05925_af2_0001_0000200001_0000001_0_0001_af2pred_0001 (protein)
chain: SSSSDDRERLLKRAAEAALEVYERVGDPRLKKVLELLLKLAREAGNEEVVELIEEFLEELSSSSS
B24: il10ra_site1_sap_13_mot_b26a303360aa2756ef5b79665ce52f45_0001_000000179_0001_1_11_H_._HHH_b1_06404_af2_0001_0002300049_0000001_0_0001_af2pred_0001 (protein)
chain: SSSSSEEEEKLKLSLRFLKFAIEQGSERSAEHLIRAIRELVERSNNEEAKERLEELERLLKSSSS
B25: il10ra_site1_sap_14_mot_HHH_b1_05088_af2_000000046_0001_20_36_H_._HHH_b2_02467_af2_0001_0000100003_0000001_0_0001_af2pred_dldesign_0_af2pred (protein)
chain: DVEAALAALRARLPPELRGRLDRVLALAEEKGYPRLIVVQAFEQLYAQTGDPALALENLEWHLSA
B26: il10ra_site1_normal_mot_HHH_b2_00984_000000042_0001_1_20_H_._HHH_b2_04018_0001_0000400032_0000001_0 (protein)
chain: SSSSDEVEERVEELLEEAKELFERGNPEEAAELLQEATQVAIENNNAELLQLVWKVIKELASSSS
B27: il10ra_site1_normal_mot_HHH_b2_07731_000000003_0001_42_56_H_._HHH_b2_03545_0001_0000300038_0000001_0 (protein)
chain: SSSSDEVQEEVERLLEEARELHEKGNPEEAYKLIREAAEIASENNDPEAQRLVVELSHKLFSSSS
B28: il10ra_site1_normal_mot_HHH_b2_00612_000000251_0001_1_14_H_._HHH_b1_05183_af2_0001_0000400024_0000001_0_af2pred_0001 (protein)
chain: SSSNDAAELIQEVAELVRRILEDPEHKEELEERIEELIEELREAGNRLAVLAAEYALKRVGSSSS
B29: il10ra_site1_sap_19_mot_HHH_b1_07835_af2_000000063_0001_1_16_H_._HHH_b1_04396_af2_0001_0000200002_0000001_0_0001 (protein)
chain: SSSSSDEELEERIKELLEELKEITDPKRFLKLMHEILRLIFRLGDWELLRELWEIAREWGSSSSS
B30: il10ra_site1_sap_21_mot_HHH_b1_02665_000000293_0001_1_18_H_._HHH_b1_06561_af2_0001_0000400012_0000002_0_0001_af2pred_0001 (protein)
chain: SSSSSSDEYREEVEELLEEAEENPEHAAELIHEAAKLAVEGQDPEALRLVIEFLRRVISSSSSSS
B31: il10ra_site1_normal_mot_HHH_b2_00033_000000036_0001_41_54_H_._HHH_b1_07799_af2_0001_0000500020_0000001_0 (protein)
chain: SSSSDEEAERLFQLVWELNKRGDEEELEELLKEIRELEKEDPRLRKSLRQAVFAAEQFLRSSSSS
B32: il10ra_site1_normal_mot_HHH_b2_00134_af2_000000008_0001_38_52_H_._189ca46c2b6f258b25d663752d8ad4bb_0001_1_af2_0001_0000100002_0000002_0 (protein)
chain: SEEQEELLQEILGDPELARLVLKSFERQEKQIGDPRQALRAVLAFLRLAGLVSPEQLRLIEEILR
B33: il10ra_site1_sap_12_mot_HHH_b1_03763_000000278_0001_22_38_H_._HHH_b2_04319_af2_0001_0000100007_0000001_0_0001 (protein)
chain: SSSSDERREIYELLREAVELDHDGNPEEAEKVLEEAERLAEEAGDDVLLVQVRYLLELLNSSSSS
B34: il10ra_site1_sap_14_mot_HHH_b1_06789_af2_000000041_0001_1_20_H_._HHH_b2_00587_0001_0000300020_0000001_0_0001 (protein)
chain: SSSSSSSKEEVEEILEEAEEIEDPEERIKVLLEALRVAWRHNDEEALRLVWEVVKKLGSSSSSSS
B35: il10ra_site1_normal_mot_HHH_b2_08186_000000021_0001_43_56_H_._HHH_b2_07548_0001_0000400022_0000001_1 (protein)
chain: SSSSSDEEEEEVEELLEEAKHIEDREKVRRLVMEAARIAYRASDPELLQLVWRVLKELTSSSSSS
B36: il10ra_site1_normal_mot_HHH_b2_04912_000000028_0001_1_20_H_._HHH_b1_06862_af2_0001_0000200023_0000001_0 (protein)
chain: SSSSDENREVLELSIEAFRLALRGNPEEAEELLEKALKLAEEAGNERIARQIRQLLQAINSSSSS
B37: il10ra_site1_normal_mot_HHH_b1_01821_000000158_0001_23_39_H_._HHH_b2_02225_0001_0000400032_0000001_0 (protein)
chain: SSSSSSSAEERVRELIEELEEVSEEERKQLLFEAVRFALEANNAELLQELWELFRKLASSSSSSS

Biological target: il10ra, Q13651
Experiment: yeast display titration

Apparent Kd, inactive:
B1 no binding seen
B2 no binding seen
B3 no binding seen
B4 no binding seen
B5 no binding seen
B6 no binding seen
B7 no binding seen
B8 no binding seen
B9 no binding seen
B10 no binding seen
B11 no binding seen
B12 no binding seen
B13 no binding seen
B14 no binding seen
B15 no binding seen
B16 no binding seen
B17 no binding seen
B18 no binding seen
B19 no binding seen
B20 no binding seen
B21 no binding seen
B22 no binding seen
B23 no binding seen
B24 no binding seen
B25 no binding seen
B26 no binding seen
B27 no binding seen
B28 no binding seen
B29 no binding seen
B30 no binding seen
B31 no binding seen
B32 no binding seen
B33 no binding seen
B34 no binding seen
B35 no binding seen
B36 no binding seen
B37 no binding seen
